Laboratory results: patent publication US20180048011A1, “HIGH pH ORGANIC FLOW BATTERY” (President and Fellows of Harvard College, priority 2015, published 2018)

How the values were obtained:
[1] = Full flow cell test, quinone negolyte vs. ferrocyanide posolyte; details: negative electrolyte 1.2 g in 10 mL 2 M KOH
Description: Cell testing was performed at 20° C. using solutions of 0.5 M 2,6-DHAQ in 2 M KOH, and 0.4 M K4Fe(CN)6 in 1 M KOH. These solutions were pumped through a flow cell constructed from graphite flow plates and carbon paper electrodes, which were separated by a Nafion membrane (FIGS. 12a and 12 b). A charging current of 0.1 A cm^−2 was applied to charge the cell, and polarization curves were measured at 10%, 50%, and 100% states of charge (SOC). The polarization curves (FIG. 13b) show peak galvanic power densities beyond 0.45 W cm^-2.
The cell was cycled at a constant current density of ±0.1 A cm^-2 for 100 cycles (FIG. 14a). […] A 0.1% loss in capacity per cycle was observed during cycling, which appears to be a continuous loss of electro-active species over the 100 cycles (FIG. 14b). We explored three possible loss mechanisms: chemical decomposition, electrolyte crossover through the membrane, and leakage from the pumping system. […] This observation places an upper limit on crossover of 0.8% of the DHAQ, implying a crossover current density of <2.5 μA cm^-2 (FIGS. 16a and 16b). […] A source of leakage was readily apparent but not quantifiable at the exit of the humidified nitrogen bubbling through the negolyte to prevent energy loss by permeation of atmospheric oxygen. Coloration could also be found on the gaskets, indicating a likely site of electrolyte leakage (FIGS. 17a and 17b). […]

[2] = FMN-ferrocyanide flow cell test; details: for peak power density: room temperature
Description: The positive electrolyte was prepared by dissolving potassium ferrocyanide trihydrate (1.9 g) and potassium ferricyanide (0.15 g) in 1 M KOH solution (11.25 mL) to afford a 0.4 M ferrocyanide +40 mM ferricyanide electrolyte solution. The negative electrolyte was prepared by dissolving riboflavin 5′ phosphate sodium salt (0.72 g) in 2 M KOH solution (3 mL) resulting a 0.5 M electrolyte solution.
The negative electrolyte was prepared at a fully oxidized state. The positive electrolyte contained 9% oxidized species.
(§1) Hardware from Fuel Cell Tech. (NM, Albuquerque) was used to assemble a zero-gap flow cell configuration, similar to previous reports (Aaron, D. S. et al. Journal of Power Sources 206, 450-453 (2012)), and shown schematically in FIG. 4. Serpentine flow pattern flow plates were used for both sides. A 5 cm^2 geometric surface area electrode comprised a stack of three pieces of SGL Sigracet GDL 10AA porous carbon, and a piece of Nafion 212 membrane served as the ion-selective membrane. The rest of the space between the plates was gasketed by Kalrez sheets. The electrolytes were fed into the cell through PFA tubing, at a rate of 60 mL/min controlled by Cole-Parmer Micropump peristaltic pumps.
Before and during the test, the electrolytes were purged with UHP nitrogen to remove and then keep out atmospheric oxygen. […] Galvanostatic cycling shown in
The positive electrolyte was prepared by dissolving potassium ferrocyanide trihydrate (3.2 g), sodium ferrocyanide decahydrate (3.6 g) and potassium ferricyanide (0.5 g) in 0.5 M KOH +0.5 M NaOH solution (15 mL) to afford a 1 M ferrocyanide +0.1 M ferricyanide electrolyte solution. The negative electrolyte was prepared by dissolving riboflavin 5′ phosphate sodium salt (2.4 g) in 4 M KOH solution (5 mL) resulting a 1 M electrolyte solution. The negative electrolyte was prepared in a fully oxidized state. The positive electrolyte contained 9% oxidized species.
as §1, with “Teflon” for “Kalrez”, “gear” for “peristaltic”
Before and during the test, the electrolytes were purged with UHP nitrogen to remove and then keep out atmospheric oxygen.

Row | SMILES | open circuit voltage at 50% state of charge [1] [volts] | battery voltage (open-circuit potential) at 50% state of charge ([2]; 0.5 M FMN, 0.4 M ferrocyanide) | peak power density ([2]; 0.5 M FMN, 0.4 M ferrocyanide) | battery voltage (open-circuit potential) at 50% state of charge ([2]; 1 M FMN, 1 M ferrocyanide) | peak power density ([2]; 1 M FMN, 1 M ferrocyanide)
1 | Cc1c(O)ccc2c1C(=O)c1ccc(O)c(C)c1C2=O [1,5-DMAQ, 1,5-dimethyl-2,6-dihydroxy-9,10-anthraquinone] | 1.34 | – | – | – | –
2 | Cc1cc2nc3c(=O)[nH]c(=O)nc-3n(C[C@@H](O)[C@@H](O)[C@@H](O)COP(=O)(O)O)c2cc1C [FMN, riboflavin 5′ phosphate] | – | above 1 V | above 0.2 W cm^-2 | above 1 V | above 0.4 W cm^-2
